Source: PubChem BioAssay AID1259308 (NCATS, 2017)
Shown is one part, drawn at random, of about 59,000 reagents tested. About 1,510 of them (2.6%) were called active. 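Calls use total luciferase alone and ignore viability, so some active siRNAs may act by altering cell number.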 Reagents against one gene are numbered here. Reagent sequences are not shown.

Aim: 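Genes whose loss raises luciferase production in HEK293 cells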 (primary screen)
System: human HEK293 embryonic kidney cells stably expressing firefly luciferase (HEK-CMV-Luc2-Hygro)
Reagents: single siRNA against human genes, 0.8 pmol siRNA per well
Duration: 72 h
Read-out: 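Reporter luminescence and viable-cell signal on separate replicate plates, given as percent of non-targeting control and median/MAD z-scores, plus per-cell luciferase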
Scale: total luciferase, z-score and total luciferase, % of control: higher = more reporter protein produced; luciferase per cell, z-score: higher = more reporter output per viable cell; viable cells, % of control: higher = more viable cells
Rule for the call: 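Active when the median/MAD z-score for overall luciferase is greater than 3; a gene was taken forward for validation with new siRNAs if at least two of its three siRNAs passed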
Meaning of the calls: active = raised luciferase; inactive = no rise

no.	gene	reagent no.	total luciferase, z-score	total luciferase, % of control	luciferase per cell, z-score	viable cells, % of control	activity call
1	JPH3 (junctophilin 3)	1	-0.163	78.6	0.687	73.3	inactive
2	JPH3 (junctophilin 3)	2	1.46	111	2.39	66.1	inactive
3	JPH3 (junctophilin 3)	3	0.417	90.2	0.181	96.1	inactive
4	UBTD2 (ubiquitin domain containing 2)	1	0.0981	83.8	-0.23	99.5	inactive
5	UBTD2 (ubiquitin domain containing 2)	2	1.42	110	1.66	79.6	inactive
6	UBTD2 (ubiquitin domain containing 2)	3	0.83	98.4	0.103	107	inactive
7	TASL (TLR adaptor interacting with endolysosomal SLC15A4)	1	-0.826	65.5	-0.644	86.7	inactive
8	TASL (TLR adaptor interacting with endolysosomal SLC15A4)	2	-0.0414	81.1	-0.539	104	inactive
9	TASL (TLR adaptor interacting with endolysosomal SLC15A4)	3	0.21	86.1	-0.0051	96.3	inactive
10	GALNT16 (polypeptide N-acetylgalactosaminyltransferase 16)	1	0.636	94.5	0.368	95.9	inactive
11	GALNT16 (polypeptide N-acetylgalactosaminyltransferase 16)	2	-1.74	47.3	-0.771	64.7	inactive
12	GALNT16 (polypeptide N-acetylgalactosaminyltransferase 16)	3	1.43	110	0.93	96.4	inactive

Next part; the last 2 above are carried over.
no.	gene	reagent no.	total luciferase, z-score	total luciferase, % of control	luciferase per cell, z-score	viable cells, % of control	activity call
11	GALNT16 (polypeptide N-acetylgalactosaminyltransferase 16)	2	-1.74	47.3	-0.771	64.7	inactive
12	GALNT16 (polypeptide N-acetylgalactosaminyltransferase 16)	3	1.43	110	0.93	96.4	inactive
13	IL10RB (interleukin 10 receptor subunit beta)	1	-0.992	62.2	-0.202	73.2	inactive
14	IL10RB (interleukin 10 receptor subunit beta)	2	-1.39	54.2	-1.1	80.8	inactive
15	IL10RB (interleukin 10 receptor subunit beta)	3	-0.904	63.9	0.127	69.1	inactive
16	CPAMD8P1 (CPAMD8 pseudogene 1)	1	1.56	113	2.06	73.3	inactive
17	CPAMD8P1 (CPAMD8 pseudogene 1)	2	-0.152	78.9	0.0616	86.7	inactive
18	CPAMD8P1 (CPAMD8 pseudogene 1)	3	-0.893	64.1	-0.747	87.2	inactive
19	DDAH2 (DDAH family member 2, ADMA-independent)	1	0.452	90.9	-0.0376	103	inactive
20	DDAH2 (DDAH family member 2, ADMA-independent)	2	-0.845	65.1	-0.893	92	inactive
21	DDAH2 (DDAH family member 2, ADMA-independent)	3	-0.742	67.1	-0.82	93.1	inactive
22	WAC (WW domain containing adaptor with coiled-coil)	1	-2.74	27.4	-4.02	88.2	inactive
23	WAC (WW domain containing adaptor with coiled-coil)	2	-1.25	57	-1.42	92.6	inactive
24	WAC (WW domain containing adaptor with coiled-coil)	3	-0.821	65.6	-1.11	98	inactive
